Patent publication US20140302034A1 (STEM CENTRX, published 2014)
Results are given in words; binding and its absence hold for the method and conditions named. Some binding calls cover weakened binding; strength is not graded here.

T1: mouse EFNA3 (mouse, UniProt O08545)
T1 construct: the sheet prints only 'Ms XR'; also called mouse ephrin-A3 homolog
T1 sequence (ligand, looked up): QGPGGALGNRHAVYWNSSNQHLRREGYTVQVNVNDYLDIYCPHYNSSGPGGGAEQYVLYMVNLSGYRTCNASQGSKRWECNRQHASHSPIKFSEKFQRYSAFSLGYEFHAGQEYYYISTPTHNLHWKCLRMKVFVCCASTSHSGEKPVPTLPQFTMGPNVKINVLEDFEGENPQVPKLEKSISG


How the values were obtained:
[1] = target: cynomolgus EFNA1 (cynomolgus); assay: ForteBio, concentration series of recombinant monomeric cynomolgus ephrin-A1
mouse EFNA3 = target: T1, mouse EFNA3; assay: cross-reactivity with the mouse homolog (e.g. by ForteBio)

Row | binding [1] | binding (mouse EFNA3) | Binder
1 | binds |  | SC9.20 (antibody, V domains shown) VH: DVQLQESGPGLVKPSQSLSLTCSVTGYSITSGYYWNWIRQFPGNRLEWMAYISYDGSNDYNPSLKNRISITRDTSKNQFFLKLNSVTTEDTATYYCARGYPILFAYWGQGTLVTVSA VL: DIKMTQSPSSMNASLGERVSITCKTSQDINSYLSWLQQKPGKSPKTLIYRANRLVDGVPSRFSGSGSGQDYSLTISSLEYEDMGIYYCLQYDEFPLTFGIGTKLELK
2 |  | binds | SC11.51 (antibody, V domains shown, Murine monoclonal antibody from a hybridoma; also called EFNA3 modulator SC11.51) VH: EVQLQQSGPELVKPGASVKISCKASGYTFTDYYMNWVKQTHGKSLEWIGDITPNSGGPTYNQNFKGKATLTVDRSSTTAFMELRSLTSDDSAVYYCVRSAYYYGTNYDFDYWGQGTTLTVSS VL: QIVLTQSPAIMSASPGEKVTMTCSASSSVTYMYWYQQKPGSSPKPWIYRTSNLASGVPTRFSGSGSGTSYSLTISSVEAEDTATYYCQQYSDYPLTFGAGTKLELK
